These are yes or no findings as the source states them, for the method shown. Some binding calls cover weakened binding; strength is not graded here.
Target: ICAM-1 (UniProt P13597)
Experiment: cell adhesion assay; macrophages on ICAM-1 coated substrates, with Ca2+Mg2+, Mn2+, LA1 or LA1 + neutralizing anti-CD11b antibody; only the target purified

Protein sequences, listed by entry. Tags and fused reporters are not part of them. Lines headed by an entry give the natural chain unless they say otherwise; changes in a name come on top. Residues count along the entry.
UniProt P13597, residues 28-485: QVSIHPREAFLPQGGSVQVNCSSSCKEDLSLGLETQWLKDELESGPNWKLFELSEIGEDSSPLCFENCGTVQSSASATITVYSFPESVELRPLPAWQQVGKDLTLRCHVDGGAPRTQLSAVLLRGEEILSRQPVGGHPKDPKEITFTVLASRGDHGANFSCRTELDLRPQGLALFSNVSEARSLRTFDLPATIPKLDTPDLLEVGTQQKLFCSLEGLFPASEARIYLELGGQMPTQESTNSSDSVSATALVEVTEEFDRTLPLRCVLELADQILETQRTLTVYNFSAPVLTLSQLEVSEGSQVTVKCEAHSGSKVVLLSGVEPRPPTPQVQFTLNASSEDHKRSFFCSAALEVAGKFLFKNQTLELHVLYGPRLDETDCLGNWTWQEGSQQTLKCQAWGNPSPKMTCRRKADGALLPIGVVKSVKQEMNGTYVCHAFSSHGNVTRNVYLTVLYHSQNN
UniProt P05555: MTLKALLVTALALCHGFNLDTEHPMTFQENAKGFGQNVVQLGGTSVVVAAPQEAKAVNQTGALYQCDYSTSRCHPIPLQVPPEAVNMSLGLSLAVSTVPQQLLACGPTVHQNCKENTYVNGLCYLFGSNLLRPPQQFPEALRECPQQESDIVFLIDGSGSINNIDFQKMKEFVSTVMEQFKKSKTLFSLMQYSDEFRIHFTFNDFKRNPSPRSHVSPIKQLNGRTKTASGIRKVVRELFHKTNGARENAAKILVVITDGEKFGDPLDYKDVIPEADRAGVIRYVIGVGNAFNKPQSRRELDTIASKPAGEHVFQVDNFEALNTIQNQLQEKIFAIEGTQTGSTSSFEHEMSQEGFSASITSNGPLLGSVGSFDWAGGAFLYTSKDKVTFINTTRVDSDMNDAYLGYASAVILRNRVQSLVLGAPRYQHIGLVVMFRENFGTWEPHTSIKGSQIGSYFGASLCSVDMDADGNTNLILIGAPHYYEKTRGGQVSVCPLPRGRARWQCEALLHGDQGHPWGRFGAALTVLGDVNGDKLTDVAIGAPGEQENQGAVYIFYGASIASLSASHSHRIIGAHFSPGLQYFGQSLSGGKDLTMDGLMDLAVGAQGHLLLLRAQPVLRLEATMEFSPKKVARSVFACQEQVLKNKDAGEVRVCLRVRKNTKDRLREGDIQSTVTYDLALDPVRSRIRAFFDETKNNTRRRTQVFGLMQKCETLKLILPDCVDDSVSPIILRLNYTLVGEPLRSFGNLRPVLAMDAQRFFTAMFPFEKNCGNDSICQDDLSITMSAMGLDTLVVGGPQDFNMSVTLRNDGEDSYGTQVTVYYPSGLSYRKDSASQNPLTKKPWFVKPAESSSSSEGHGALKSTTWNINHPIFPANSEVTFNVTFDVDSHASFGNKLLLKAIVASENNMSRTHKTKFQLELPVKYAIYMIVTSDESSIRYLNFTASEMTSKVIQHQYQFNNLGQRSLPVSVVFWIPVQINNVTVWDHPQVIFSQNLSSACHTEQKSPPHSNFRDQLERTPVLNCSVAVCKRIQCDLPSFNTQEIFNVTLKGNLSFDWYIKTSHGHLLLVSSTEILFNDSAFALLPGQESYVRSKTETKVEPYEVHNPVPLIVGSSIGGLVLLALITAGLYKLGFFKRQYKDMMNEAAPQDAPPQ

binding: binds
Substance: integrin CD11b/CD18 (from UniProt P05555 17-1153; P11835 24-771) (complex)

Reference: paper PMC6300665
